# This is one part of the list.
# Tests used:
# Assay in all cases: glycan array binding signal (z-score within array); higher = stronger binding
# Conditions in all cases: glycan notation: IUPAC condensed, linker removed
# [1] = molecular target: Neu5Ac(a2-6)Gal(b1-4)GlcNAc(b1-3)Gal(b1-4)GlcNAc(b1-3)GalNAc
# In short: (§1)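 Negative Z-scores can be read as non-binding. The Z-score is calculated within each array and then averaged across arrays of one protein sequence at different concentrations or buffers and across linkers. Arrays, 3228 in all, were curated from the Consortium for Functional Glycomics database and kept only where the protein sequence was available.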
# [2] = molecular target: Neu5Ac(a2-6)Gal(b1-4)GlcNAc(b1-3)Gal(b1-4)GlcNAc(b1-3)[Neu5Ac(a2-6)Gal(b1-4)GlcNAc(b1-3)Gal(b1-4)GlcNAc(b1-6)]GalNAc
# In short: as §1
# [3] = molecular target: Neu5Ac(a2-6)Gal(b1-4)GlcNAc(b1-3)Gal(b1-4)GlcNAc(b1-6)[Gal(b1-3)]GalNAc
# In short: as §1
# [4] = molecular target: Neu5Ac(a2-6)Gal(b1-4)GlcNAc(b1-3)Gal(b1-4)[Fuc(a1-3)]GlcNAc(b1-3)Gal(b1-4)[Fuc(a1-3)]GlcNAc
# In short: as §1
# [5] = molecular target: Neu5Ac(a2-6)Gal(b1-4)GlcNAc(b1-3)GalNAc
# In short: as §1
# [6] = molecular target: Neu5Ac(a2-6)Gal(b1-4)GlcNAc(b1-3)[Neu5Ac(a2-6)Gal(b1-4)GlcNAc(b1-6)]GalNAc
# In short: as §1
# [7] = molecular target: Neu5Ac(a2-6)Gal(b1-4)GlcNAc(b1-6)GalNAc
# In short: as §1
# [8] = molecular target: Neu5Ac(a2-6)Gal(b1-4)GlcNAc(b1-6)[Gal(b1-3)GlcNAc(b1-3)]Gal(b1-4)Glc
# In short: as §1
# [9] = molecular target: Neu5Ac(a2-6)Gal(b1-4)GlcNAc(b1-6)[Gal(b1-3)]GalNAc
# In short: as §1
# [10] = molecular target: Neu5Ac(a2-6)Gal(b1-4)GlcNAc6S
# In short: as §1
# Neu5Ac(a2-6)GalNAc = molecular target: Neu5Ac(a2-6)GalNAc
# In short: as §1
# [11] = molecular target: Neu5Ac(a2-6)GalNAc(b1-4)GlcNAc
# In short: as §1
# [12] = molecular target: Neu5Ac(a2-6)GalNAc(b1-4)GlcNAc6S
# In short: as §1
# [13] = molecular target: Neu5Ac(a2-6)GlcNAc(b1-4)GlcNAc
# In short: as §1
# [14] = molecular target: Neu5Ac(a2-6)GlcNAc(b1-4)GlcNAc(b1-4)GlcNAc
# In short: as §1
# Neu5Ac(a2-8)Neu5Ac = molecular target: Neu5Ac(a2-8)Neu5Ac
# In short: as §1
# [15] = molecular target: Neu5Ac(a2-8)Neu5Ac(a2-3)Gal(b1-3)GalNAc(b1-4)[Neu5Ac(a2-3)]Gal(b1-4)Glc
# In short: as §1
# [16] = molecular target: Neu5Ac(a2-8)Neu5Ac(a2-3)Gal(b1-3)GalNAc(b1-4)[Neu5Ac(a2-8)Neu5Ac(a2-3)]Gal(b1-4)Glc
# In short: as §1
# [17] = molecular target: Neu5Ac(a2-8)Neu5Ac(a2-3)Gal(b1-4)Glc
# In short: as §1
# [18] = molecular target: Neu5Ac(a2-8)Neu5Ac(a2-3)Gal(b1-4)GlcNAc
# In short: as §1
# [19] = molecular target: Neu5Ac(a2-8)Neu5Ac(a2-3)[Gal(b1-3)GalNAc(b1-4)]Gal(b1-4)Glc
# In short: as §1
# [20] = molecular target: Neu5Ac(a2-8)Neu5Ac(a2-3)[GalNAc(b1-4)]Gal(b1-4)Glc
# In short: as §1
# [21] = molecular target: Neu5Ac(a2-8)Neu5Ac(a2-8)Neu5Ac
# In short: as §1
# [22] = molecular target: Neu5Ac(a2-8)Neu5Ac(a2-8)Neu5Ac(a2-3)Gal(b1-4)Glc
# In short: as §1
# [23] = molecular target: Neu5Ac(a2-8)Neu5Ac(a2-8)Neu5Ac(a2-3)[Gal(b1-3)GalNAc(b1-4)]Gal(b1-4)Glc
# In short: as §1
# [24] = molecular target: Neu5Ac(a2-8)Neu5Ac(a2-8)Neu5Ac(a2-3)[GalNAc(b1-4)]Gal(b1-4)Glc
# In short: as §1
# [25] = molecular target: Neu5Ac(a2-8)Neu5Ac(a2-8)Neu5Ac(a2-8)Neu5Ac(a2-3)[GalNAc(b1-4)]Gal(b1-4)Glc
# In short: as §1
# [26] = molecular target: Neu5Ac(a2-8)Neu5Gc(a2-3)Gal(b1-4)GlcNAc
# In short: as §1
# [27] = molecular target: Neu5Ac(b2-6)Gal(b1-4)GlcNAc
# In short: as §1
# Neu5Ac(b2-6)GalNAc = molecular target: Neu5Ac(b2-6)GalNAc
# In short: as §1
# [28] = molecular target: Neu5Ac9Ac(a2-3)Gal(b1-3)GlcNAc
# In short: as §1
# [29] = molecular target: Neu5Ac9Ac(a2-3)Gal(b1-4)GlcNAc
# In short: as §1
# [30] = molecular target: Neu5Ac9Ac(a2-6)Gal(b1-4)GlcNAc
# In short: as §1
# [31] = molecular target: Neu5Gc(a2-3)Gal(b1-3)GlcNAc
# In short: as §1
# [32] = molecular target: Neu5Gc(a2-3)Gal(b1-3)[Fuc(a1-4)]GlcNAc
# In short: as §1
# Neu5Gc(a2-3)Gal(b1-4)Glc = molecular target: Neu5Gc(a2-3)Gal(b1-4)Glc
# In short: as §1
# [33] = molecular target: Neu5Gc(a2-3)Gal(b1-4)GlcNAc
# In short: as §1
# [34] = molecular target: Neu5Gc(a2-3)Gal(b1-4)GlcNAc(b1-3)Gal(b1-4)GlcNAc(b1-2)Man(a1-3)[Neu5Gc(a2-3)Gal(b1-4)GlcNAc(b1-3)Gal(b1-4)GlcNAc(b1-2)Man(a1-6)]Man(b1-4)GlcNAc(b1-4)GlcNAc
# In short: as §1
# [35] = molecular target: Neu5Gc(a2-3)Gal(b1-4)[Fuc(a1-3)]GlcNAc
# In short: as §1
# [36] = molecular target: Neu5Gc(a2-6)Gal(b1-4)GlcNAc
# In short: as §1
# Neu5Gc(a2-6)GalNAc = molecular target: Neu5Gc(a2-6)GalNAc
# In short: as §1
# [37] = molecular target: Neu5Gc(a2-8)Neu5Ac(a2-3)Gal(b1-4)GlcNAc
# In short: as §1
# [38] = molecular target: Neu5Gc(a2-8)Neu5Gc(a2-3)Gal(b1-4)GlcNAc
# In short: as §1
# [39] = molecular target: Neu5Gc(a2-8)Neu5Gc(a2-3)Gal(b1-4)GlcNAc(b1-3)Gal(b1-4)GlcNAc
# In short: as §1
# [40] = molecular target: Neu5Gc(a2-8)Neu5Gc(a2-6)Gal(b1-4)GlcNAc
# In short: as §1
# [41] = molecular target: Neu5Gc(b2-6)Gal(b1-4)GlcNAc
# In short: as §1
binder,measurement,setting,value
TAL6-4LysM (Trichoderma atroviride) (protein) AADSIPSISPTGIITPTPTQSGMVSNCNKFYDVHSNDGCSAIASSQHVDLSSLYKWNPAIKTDCSGLQASVYVCIGILTTSMSTTSKLPTTTSKPSTTSKPPTGITTPTPTQSGMVKNCNKFYDVHSGDGCSAIASSQKVNLSSFYLWNPAVKTDCSGLQASVFVCIGTLTTSMSTTTSKLPTTTSKPSTTSKPPTGIITPTPTQNGMVKNCNKFYDVHSGDGCSAIASSQKVNLSSFYLWNPAVKTDCSGLQASVFVCVGTATTTTAAGITTPTPTQSGMVSGCNKFYDVHAGDGCSAIASSQKIALSSLYKWNPAVKTDCSGLQASVYICIGVGNAAAARVTGALEQKLISEEDLNSAVDHHHHHH,glycan array binding signal (z-score),[1],3.9
same,glycan array binding signal (z-score),[2],1.4
same,glycan array binding signal (z-score),[3],1.64
same,glycan array binding signal (z-score),[4],-1.23
same,glycan array binding signal (z-score),[5],1.35
same,glycan array binding signal (z-score),[6],0.082
same,glycan array binding signal (z-score),[7],-0.71
same,glycan array binding signal (z-score),[8],-1.09
same,glycan array binding signal (z-score),[9],-1.19
same,glycan array binding signal (z-score),[10],1.36
same,glycan array binding signal (z-score),Neu5Ac(a2-6)GalNAc,0.18
same,glycan array binding signal (z-score),[11],0.779
same,glycan array binding signal (z-score),[12],0.79
same,glycan array binding signal (z-score),[13],0.492
same,glycan array binding signal (z-score),[14],-0.723
same,glycan array binding signal (z-score),Neu5Ac(a2-8)Neu5Ac,0.607
same,glycan array binding signal (z-score),[15],-1.44
same,glycan array binding signal (z-score),[16],0.069
same,glycan array binding signal (z-score),[17],-1.49
same,glycan array binding signal (z-score),[18],1.21
same,glycan array binding signal (z-score),[19],-0.586
same,glycan array binding signal (z-score),[20],-0.463
same,glycan array binding signal (z-score),[21],0.49
same,glycan array binding signal (z-score),[22],-1.63
same,glycan array binding signal (z-score),[23],-0.364
same,glycan array binding signal (z-score),[24],-0.514
same,glycan array binding signal (z-score),[25],-0.204
same,glycan array binding signal (z-score),[26],0.658
same,glycan array binding signal (z-score),[27],-0.092
same,glycan array binding signal (z-score),Neu5Ac(b2-6)GalNAc,-1.17
same,glycan array binding signal (z-score),[28],0.627
same,glycan array binding signal (z-score),[29],-1.11
same,glycan array binding signal (z-score),[30],-0.388
same,glycan array binding signal (z-score),[31],0.456
same,glycan array binding signal (z-score),[32],0.443
same,glycan array binding signal (z-score),Neu5Gc(a2-3)Gal(b1-4)Glc,-0.001
same,glycan array binding signal (z-score),[33],-1.52
same,glycan array binding signal (z-score),[34],-0.172
same,glycan array binding signal (z-score),[35],0.157
same,glycan array binding signal (z-score),[36],0.42
same,glycan array binding signal (z-score),Neu5Gc(a2-6)GalNAc,-0.226
same,glycan array binding signal (z-score),[37],0.186
same,glycan array binding signal (z-score),[38],-1.11
same,glycan array binding signal (z-score),[39],0.76
same,glycan array binding signal (z-score),[40],-0.801
same,glycan array binding signal (z-score),[41],-0.286

# As a short view, part of the list above.
binder,measurement,setting,value
TAL6-4LysM (Trichoderma atroviride) (protein) AADSIPSISPTGIITPTPTQSGMVSNCNKFYDVHSNDGCSAIASSQHVDLSSLYKWNPAIKTDCSGLQASVYVCIGILTTSMSTTSKLPTTTSKPSTTSKPPTGITTPTPTQSGMVKNCNKFYDVHSGDGCSAIASSQKVNLSSFYLWNPAVKTDCSGLQASVFVCIGTLTTSMSTTTSKLPTTTSKPSTTSKPPTGIITPTPTQNGMVKNCNKFYDVHSGDGCSAIASSQKVNLSSFYLWNPAVKTDCSGLQASVFVCVGTATTTTAAGITTPTPTQSGMVSGCNKFYDVHAGDGCSAIASSQKIALSSLYKWNPAVKTDCSGLQASVYICIGVGNAAAARVTGALEQKLISEEDLNSAVDHHHHHH,glycan array binding signal (z-score),Neu5Ac(b2-6)GalNAc,-1.17
same,glycan array binding signal (z-score),[28],0.627
same,glycan array binding signal (z-score),[29],-1.11
same,glycan array binding signal (z-score),[30],-0.388
